Data as given in PubChem BioAssay AID504786 (Drosophila RNAi Screening Center, 2011).

- Screen: 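Fly genes required for HIF-dependent transcription when hypoxia is mimicked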 (primary screen)
- Cells: Drosophila S2 cells with a stable HIF luciferase reporter
- Reagent: long dsRNA against Drosophila genes, about 0.2 µg dsRNA per well of a 384-well plate
- Timing: three days of knock-down, then 20 h of DFO before reading
- Treatment: desferrioxamine (DFO) at 100 µM, an iron chelator that mimics hypoxia, for 20 h
- Detection: 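HIF reporter luminescence in cells given 100 µM DFO for 20 h, using the mouse ldh-a hypoxia-response element, scored as per-plate z-scores; higher means greater loss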
- Scale: z-score: higher = stronger loss of HIF reporter signal
In all, the deposit lists about 21,000 reagents; this is a random part of those with a known target gene and a result. 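Primary screen; positive scores mean lost reporter signal, so the sign may be inverted from the usual convention.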 Reagent sequences are not shown.

Against CG13032 [DRSC09912], the entry reads z-score, replicate 1 = -0.3; z-score, replicate 2 = -0.4.
Depletion of Sgf11 [DRSC09987] gave: z-score, replicate 1 = -0.5; z-score, replicate 2 = -0.4.
CG31533 [DRSC13018] showed z-score, replicate 1 = -0.4; z-score, replicate 2 = -0.5.
HERC2 [DRSC20566] scored z-score, replicate 1 = -0.3; z-score, replicate 2 = -0.1.
With knock-down of Cpr72Ea [DRSC10451], the record shows z-score, replicate 1 = -0.3; z-score, replicate 2 = 0.
After knock-down of Jon99Cii [DRSC16858], the screen gave z-score, replicate 1 = -0.5; z-score, replicate 2 = -0.7.
Depletion of Egm [DRSC07319] came out at: z-score, replicate 1 = -0.3; z-score, replicate 2 = -0.8.
CG34367 [DRSC02238] gave z-score, replicate 1 = -0.3; z-score, replicate 2 = -0.4.
After knock-down of CG34367 [DRSC02850], the record shows z-score, replicate 1 = -0.2; z-score, replicate 2 = -0.4.
Knock-down of CG17648 [DRSC00508] came out at: z-score, replicate 1 = 0.1; z-score, replicate 2 = -0.2.
Depletion of CG18428 [DRSC15326] came out at: z-score, replicate 1 = -0.2; z-score, replicate 2 = -0.2.
Silencing of CG11699 [DRSC19419] came out at: z-score, replicate 1 = -0.3; z-score, replicate 2 = -0.6.
CG1503 [DRSC20512] gave z-score, replicate 1 = -0.3; z-score, replicate 2 = -0.3.
For Hsp60C [DRSC03036], the entry reads z-score, replicate 1 = -0.4; z-score, replicate 2 = -0.4.
For Keap1 [DRSC15528], the values are z-score, replicate 1 = -0.1; z-score, replicate 2 = 0.2.
With knock-down of Tsp42Ef [DRSC06191], the screen gave z-score, replicate 1 = -0.3; z-score, replicate 2 = -0.1.

Look-ups from the list:
Value for CG11699 [DRSC19419] in “z-score, replicate 1”: -0.3
Under “z-score, replicate 1”, CG1503 [DRSC20512] has -0.3
Sgf11 [DRSC09987], z-score, replicate 1 = -0.5
